## Small-molecule microarray binding calls

Calls as published in the ROBIN set (doi:10.1002/anie.202211358).

Targets (5′ to 3′):
SAM-II: SAM-II riboswitch RNA pseudoknot, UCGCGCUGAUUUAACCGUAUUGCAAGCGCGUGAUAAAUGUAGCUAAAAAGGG. Hit rate about 1% of about 21,000 compounds.
TPP: TPP riboswitch RNA three-way junction, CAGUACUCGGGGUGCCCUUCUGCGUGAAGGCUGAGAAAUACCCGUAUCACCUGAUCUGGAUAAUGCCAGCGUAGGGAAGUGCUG. Hit rate about 0.7% of about 24,000 compounds.
PreQ1: PreQ1 riboswitch RNA pseudoknot, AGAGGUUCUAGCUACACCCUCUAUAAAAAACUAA. From B. subtilis. Hit rate about 0.7% of about 24,000 compounds.

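Compounds were printed on reactive glass slides in duplicate spots, a dye-labelled oligonucleotide was laid over them, and the fluorescence left after washing was read. The data file lists only calls. An earlier report of the laboratory on the PreQ1, TPP and SAM-II riboswitches (doi:10.1038/s41467-019-09493-3) used 1 µM RNA for 2 h and required a mean Z-score above 3 (spot signal-to-noise against the whole library), a score well above that on a control array, and duplicate spots agreeing (coefficient of variation under 100); it then also set aside compounds that hit other targets, which this list keeps. The cut-offs behind this list may differ. A missing hit is not proof of no binding, and a hit is not a measured affinity.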 Key: active = hit, inactive = tested without a hit. This is an unselected part of the compounds tested. A target missing from an entry has no call listed here.

With Nc1nc(SCC(=O)N2CCCCC2)nc2sc3c(c12)CCCC3 the screen gave SAM-II: inactive; TPP: inactive; PreQ1: inactive. For Nc1cc(OC(=O)c2ccco2)nn1S(=O)(=O)c1ccccc1 the calls were SAM-II: inactive; TPP: inactive; PreQ1: inactive. Cc1c(C)n(CC(O)CNC2CCCCC2)c2ccccc12 (centres unmarked) was scored SAM-II: inactive; TPP: inactive; PreQ1: inactive. Nc1c(C(=O)O)cnc2ccccc12 was scored SAM-II: inactive; TPP: inactive; PreQ1: inactive. For COCCN(C)C[C@@H]1CN(C(=O)c2nc3ccccc3[nH]c2=O)C[C@@H]1CO the calls were SAM-II: inactive; TPP: inactive; PreQ1: inactive. Cc1ccc(S(=O)(=O)c2cnc3ccccc3c2Nc2ccc(F)cc2)cc1 was scored TPP: inactive; PreQ1: inactive. O=C(CN1CCCC(O)C1)NCc1cc2n(n1)CCCN(C(=O)C1CCC1)C2 (centres unmarked) was scored SAM-II: inactive; TPP: inactive; PreQ1: inactive.

COc1cc(O)c2c(c1)C(=O)c1cc(C)cc(O)c1C2=O was scored SAM-II: inactive; TPP: inactive; PreQ1: inactive. For OCCn1nc(CC2CC2)nc1-c1ccccc1-n1cccn1 the calls were SAM-II: inactive; TPP: inactive; PreQ1: inactive.